No constants are given. Whether binding was seen depends on the method and setting.
Target: IscU, Fe-S cluster scaffold protein (E. coli) (E. coli) (UniProt P0ACD4)
Test: native MS; Zn2+-IscU (100% Zn2+) alone, 200 mM ammonium formate pH 8.0; both purified

By UniProt entry, the sequences of proteins in these tests, tags left out.
UniProt P0ACD4: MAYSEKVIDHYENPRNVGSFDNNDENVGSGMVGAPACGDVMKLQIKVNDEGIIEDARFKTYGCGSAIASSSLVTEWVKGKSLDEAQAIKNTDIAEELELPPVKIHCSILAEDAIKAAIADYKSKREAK

With “IscU, Fe-S cluster scaffold protein (E. coli) (from UniProt P0ACD4 1-128)” the binding was “no binding (condition: with Zn2+ bound to IscU)”.

From article PMC9769115
